PubChem BioAssay AID652259 | Drosophila RNAi Screening Center | 2013

Assay: 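Identify new Wingless signalling regulators in fly cells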 (primary screen)
System: Drosophila clone 8 imaginal disc epithelial cells
Reagents: long dsRNA against Drosophila genes
Treatment: pathway stimulated by co-transfected Wingless expression plasmid
Measured: 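Firefly luciferase from a tcf-site Wingless reporter, measured alongside co-transfected Renilla luciferase that tracks transfection; pathway stimulated by a Wingless plasmid; the firefly-to-Renilla ratio is not deposited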
Direction: firefly reporter light: higher = more Wg reporter light, before normalisation; Renilla control light: higher = more transfected or surviving cells
Rule for the call: 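Strong candidates differ from their plate mean by at least two out of four per-plate statistical tests; weak candidates meet just one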
Meaning of the calls: active = candidate regulator (raises or lowers reporter); inactive = not a candidate
The deposit covers about 22,000 reagents; shown is an unselected part of those with a known target gene and a result. Over the whole deposit, 233 (1.1%) got an active call. 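Light values are raw, unnormalised plate reads; the ratio scores behind the reporter calls were not deposited.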 Reagents against one gene are numbered here. A plus sign joins genes that one reagent is predicted to hit. Not given: the amount of reagent, the time to read-out, the dose of the treatment.

The first 2 entries, to show the layout:
gene | reagent | reporter change call, replicate 1 | firefly reporter light, replicate 1 | firefly reporter light, replicate 2 | Renilla control light, replicate 1 | Renilla control light, replicate 2 | outcome
nst | 1 | – | 3861 | – | 1427 | – | inactive
BuGZ | 1 | – | 15738 | – | 2198 | – | inactive

The list itself, from the start:
gene | reagent | reporter change call, replicate 1 | firefly reporter light, replicate 1 | firefly reporter light, replicate 2 | Renilla control light, replicate 1 | Renilla control light, replicate 2 | outcome
nst | 1 | – | 3861 | – | 1427 | – | inactive
BuGZ | 1 | – | 15738 | – | 2198 | – | inactive
BuGZ | 2 | – | 2310 | 10325 | 967 | 4439 | inactive
CG9806 | 1 | – | 15771 | – | 8672 | – | inactive
CG14110 | 1 | – | 9749 | – | 3362 | – | inactive
beta'COP | 1 | – | 5505 | – | 1976 | – | inactive
Cp110 | 1 | – | 5066 | 7857 | 1776 | 3157 | inactive
Cp110 | 2 | – | 4.22e5 | 4.28e5 | 2.22e5 | 1.78e5 | inactive
Edg91 | 1 | – | 13416 | – | 3536 | – | inactive
CG1674 | 1 | – | 2677 | – | 1252 | – | inactive
CG1674 | 2 | – | 19623 | – | 12320 | – | inactive
CG5897 | 1 | – | 5740 | – | 2912 | – | inactive
wls | 1 | – | 6032 | – | 1872 | – | inactive
PH4alphaMP | 1 | – | 5866 | – | 2339 | – | inactive
Cyp6d5 | 1 | – | 3969 | – | 1325 | – | inactive
CG2841 | 1 | – | 3857 | – | 1424 | – | inactive
CG2841 | 2 | – | 12035 | – | 11346 | – | inactive
CG2841 | 3 | – | 7.33e5 | 8.08e5 | 3.27e5 | 3.23e5 | inactive
asRNA:CR42547 + CG15674 | 1 | – | 2256 | 6625 | 788 | 2392 | inactive
side-IV + asRNA:CR17025 | 1 | – | 17923 | – | 3552 | – | inactive
side-IV + asRNA:CR17025 | 2 | – | 16492 | – | 4245 | – | inactive
Targ3 | 1 | – | 4193 | – | 2083 | – | inactive
CG10600 | 1 | – | 6285 | – | 1291 | – | inactive
gl | 1 | – | 14208 | – | 3757 | – | inactive
Kaz-m1 | 1 | – | 20377 | – | 15488 | – | inactive
Rsbp15 | 1 | – | 9915 | – | 3460 | – | inactive
Hibch | 1 | – | 14835 | – | 3004 | – | inactive
CG5828 | 1 | – | 2540 | 5968 | 876 | 2632 | inactive
qkr58E-1 | 1 | – | 6269 | – | 1449 | – | inactive
CG34451 | 1 | – | 3552 | – | 1236 | – | inactive
CG34451 | 2 | – | 3158 | – | 1604 | – | inactive
SLC5A11 | 1 | – | 5200 | – | 2941 | – | inactive
Rcd2 | 1 | – | 11684 | – | 4026 | – | inactive
DIP-kappa | 1 | – | 23523 | – | 7123 | – | inactive
DIP-kappa | 2 | – | 21456 | – | 7920 | – | inactive
Dnaaf6 | 1 | – | 7281 | – | 2603 | – | inactive
S-Lap7 | 1 | – | 5782 | – | 1753 | – | inactive
aln | 1 | – | 3445 | – | 1808 | – | inactive
ste24b | 1 | – | 8502 | – | 2119 | – | inactive
TER94 | 1 | – | 8213 | – | 2001 | – | inactive
Him | 1 | – | 21344 | – | 8274 | – | inactive
CG13606 | 1 | – | 16701 | – | 18102 | – | inactive
VhaM9.7-d | 1 | – | 9856 | – | 2887 | – | inactive
lncRNA:CR32160 | 1 | – | 4.91e5 | 6.25e5 | 2.33e5 | 2.37e5 | inactive
Cyp6g2 | 1 | – | 6475 | – | 2484 | – | inactive
CG10011 | 1 | – | 2837 | 8104 | 920 | 1958 | inactive
Cdc42 | 1 | – | 21292 | – | 8971 | – | inactive
CG5793 | 1 | – | 21714 | – | 5363 | – | inactive
Pli | 1 | – | 4368 | 6173 | 2026 | 1837 | inactive
Cyp305a1 | 1 | – | 6395 | – | 1712 | – | inactive
Pif1A + Pif1B | 1 | – | 14490 | – | 4562 | – | inactive
Pif1A + Pif1B | 2 | – | 7592 | – | 1713 | – | inactive
Pif1A + Pif1B | 3 | – | 20519 | – | 6177 | – | inactive
slgA | 1 | – | 3585 | 10208 | 1611 | 3478 | inactive
par-1 | 1 | Wg reporter activity raised | 18185 | – | 6032 | – | active
par-1 | 2 | – | 7108 | – | 2371 | – | inactive
par-1 | 3 | – | 14576 | – | 4599 | – | inactive
par-1 | 4 | – | 6844 | – | 2360 | – | inactive
par-1 | 5 | – | 5338 | – | 1670 | – | inactive
CG32137 | 1 | – | 6538 | – | 2075 | – | inactive
CG32137 | 2 | – | 3575 | – | 1059 | – | inactive
Btk | 1 | – | 2428 | 6450 | 909 | 2739 | inactive
Btk | 2 | – | 18941 | – | 10529 | – | inactive
Btk | 3 | – | 6.01e5 | 6.25e5 | 2.45e5 | 1.86e5 | inactive
EMC1 | 1 | – | 3779 | – | 851 | – | inactive
CG13837 | 1 | – | 22646 | – | 19498 | – | inactive
CG32024 | 1 | – | 4.84e5 | 4.77e5 | 1.82e5 | 2.03e5 | inactive
CG4198 | 1 | – | 3349 | 7563 | 660 | 2716 | inactive
fax | 1 | – | 4689 | – | 1821 | – | inactive
CG3119 | 1 | – | 2531 | 6608 | 1027 | 2347 | inactive
ebd2 | 1 | – | 12720 | – | 4021 | – | inactive
CG42808 | 1 | – | 9777 | – | 4501 | – | inactive
bb8 | 1 | – | 13200 | – | 11115 | – | inactive
